Reference: publication PMC10381965
Construct, isoform or probe ends are uncertain for at least one entry. For some of these results: At least one verdict was read from the data and is not stated in words by the source.

Columns and labels:
[1] = system: CBF1 + CCAN (CENP-LN, CENP-OPQU+, CENP-HIK-TW, CENP-C) + CENP-A histone octamer (CENP-A, H4, H2A, H2B) + CBF3Core (Cep3, Ctf13, Skp1); assay: SEC-MALS; settings: holo-inner kinetochore with CENP-C; proteins purified in 20 mM Hepes pH 8.0, 300 mM NaCl, 0.5 mM TCEP; recombinant protein
[2] = system: CBF1 + CCANΔC (CENP-LN, CENP-OPQU+ with Nkp1-Nkp2, CENP-HIK-TW + no CENP-C) + CENP-A histone octamer (CENP-A, H4, H2A, H2B) + scFv (CENP-A nucleosome-stabilizing single-chain antibody); assay: cryo-EM (10 Å); settings: di-CCAN, both protomers non-topological, CBF3Core absent from the reconstruction though in the IKCEN3 sample; proteins purified in 20 mM Hepes pH 8.0, 300 mM NaCl, 0.5 mM TCEP; recombinant protein
[3] = system: CBF1 + CCANΔC (CENP-LN, CENP-OPQU+ with Nkp1-Nkp2, CENP-HIK-TW + no CENP-C) + CENP-A histone octamer (CENP-A, H4, H2A, H2B) + scFv (CENP-A nucleosome-stabilizing single-chain antibody); assay: cryo-EM structure (3.4 Å); settings: no CBF3Core, proteins purified in 20 mM Hepes pH 8.0, 300 mM NaCl, 0.5 mM TCEP, recombinant protein
[4] = system: CBF1 + CCANΔC (CENP-LN, CENP-OPQU+ with Nkp1-Nkp2, CENP-HIK-TW + no CENP-C) + CENP-A histone octamer (CENP-A, H4, H2A, H2B) + CBF3Core (Cep3, Ctf13, Skp1) + scFv (CENP-A nucleosome-stabilizing single-chain antibody); assay: cryo-EM structure (3.7-3.8 Å multibody; ~5 Å consensus); settings: IKC0N3, BS3 cross-linked, 90 bp wrapped, 33 bp 5' and 24 bp 3' unwrapped, proteins purified in 20 mM Hepes pH 8.0, 300 mM NaCl, 0.5 mM TCEP, recombinant protein

Sequence | binding result [1] | binding result [2] | binding result [3] | binding result [4]
ATAAGTCACATGATGATATTTGATTTTATTATATTTTTAAAAAAAGTAAAAAATAAAAAGTAGTTTATTTTTAAAAAATAAAATTTAAAATATTAGTGTATTTGATTTCCGAAAGTTAAAAAAGAAATAGTAAGAAATATATATTTCATTGAA (double strand) [CEN3 153 bp (native)] | binds | binds | – | –
ATAAGTCACATGGTGCCGAGGCCGCTCAATTGGTCGTAGACAGCTCTAGCACCGCTTAAACGCACGTACGCGCTGTCCCCCGCGTTTTAATATTAGTGTATTTGATTTCCGAAAGTTAAAAAAGAAATAGTAAGAAATATATATTTCATTGAA (double strand) [C0N3 153 bp (chimeric CEN3/W601)] | – | – | binds | binds
